This is an account of results in paper PMC7812315.

Amino acid sequences for entries named in this document (tags omitted). A change or cut given only in a name is not applied to a line headed by its entry. Chains listed by the source or under a name are the forms on record and can include a tag or linker.
UniProt Q08024: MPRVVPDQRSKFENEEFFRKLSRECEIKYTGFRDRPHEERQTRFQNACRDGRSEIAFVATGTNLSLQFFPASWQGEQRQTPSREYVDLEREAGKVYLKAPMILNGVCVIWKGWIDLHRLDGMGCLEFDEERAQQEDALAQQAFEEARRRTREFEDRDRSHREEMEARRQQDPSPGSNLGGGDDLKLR
RUNX1 R201Q (Q01196-8, form named): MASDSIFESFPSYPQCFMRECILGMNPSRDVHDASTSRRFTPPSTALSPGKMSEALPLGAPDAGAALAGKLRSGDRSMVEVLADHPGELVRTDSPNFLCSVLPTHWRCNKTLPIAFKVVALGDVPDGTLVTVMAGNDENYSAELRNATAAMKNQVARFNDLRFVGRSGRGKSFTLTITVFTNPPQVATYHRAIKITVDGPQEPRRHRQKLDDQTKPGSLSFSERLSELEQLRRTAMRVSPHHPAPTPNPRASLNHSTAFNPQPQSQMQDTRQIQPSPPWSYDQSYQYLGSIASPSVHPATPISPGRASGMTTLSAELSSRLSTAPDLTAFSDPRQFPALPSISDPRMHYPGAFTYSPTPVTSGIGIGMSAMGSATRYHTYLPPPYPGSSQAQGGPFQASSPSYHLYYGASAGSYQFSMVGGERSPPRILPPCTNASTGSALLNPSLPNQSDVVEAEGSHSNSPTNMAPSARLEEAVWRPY
RUNX1 R204X (Q01196-8, form named): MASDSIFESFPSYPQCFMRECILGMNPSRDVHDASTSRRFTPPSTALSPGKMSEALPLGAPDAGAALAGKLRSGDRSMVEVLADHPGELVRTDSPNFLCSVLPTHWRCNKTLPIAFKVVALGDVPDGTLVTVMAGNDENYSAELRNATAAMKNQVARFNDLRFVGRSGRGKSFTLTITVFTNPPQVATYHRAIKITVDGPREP
UniProt Q03347: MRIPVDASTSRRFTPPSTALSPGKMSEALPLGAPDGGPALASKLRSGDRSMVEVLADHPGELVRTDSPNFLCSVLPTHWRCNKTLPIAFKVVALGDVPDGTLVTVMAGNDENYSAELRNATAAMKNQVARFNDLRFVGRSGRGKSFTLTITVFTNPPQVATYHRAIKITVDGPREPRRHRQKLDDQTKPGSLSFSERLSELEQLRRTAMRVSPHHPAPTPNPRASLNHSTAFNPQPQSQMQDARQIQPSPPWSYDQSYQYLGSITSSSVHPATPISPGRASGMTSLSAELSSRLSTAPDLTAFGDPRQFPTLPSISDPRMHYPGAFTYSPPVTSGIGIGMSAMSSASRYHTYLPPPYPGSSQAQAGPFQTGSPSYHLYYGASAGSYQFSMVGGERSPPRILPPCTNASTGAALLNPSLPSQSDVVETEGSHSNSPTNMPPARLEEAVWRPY

This assay addresses CBFβ (mouse (endogenous in mouse ESC-derived progenitors)) (UniProt Q08024). Nature of the assay: proximity ligation; in situ PLA (Duolink) on cytospun, formaldehyde-fixed, permeabilised progenitors with or without dox induction of mutant RUNX1; anti-CBFβ paired with anti-RUNX1 (C-terminal), anti-HA or anti-EVI1, 1 h at room temperature.

These are yes or no findings as the source states them, for the method shown. In cells and extracts the contact can be indirect. Some entries that bind do so weakly or less than the wild type.

As to “RUNX1 R201Q (from UniProt Q01196-8 1-480)”, the binding entry is “binds weakly”.

Consider “RUNX1 R204X (from UniProt Q01196-8 1-203) (domain or fragment)”, for which the binding entry is recorded as “binds weakly”. With “endogenous RUNX1 (from UniProt Q03347 1-451)”, the binding result was “binds”.
